Where a name gives a salt, the structure may show the parent alone. This is one part of the list. Hit calls seldom repeat between salt and free forms of one compound.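 Kinases were expressed as nanoluciferase fusions in K562 cells and luminescence was read every 4 h between 2 and 18 h as percent of control, DMSO set to 100% and a positive control to 0%. A time point counts as decreased when the signal drops significantly (2 sigma). The hit call is the authors' own, does not follow from the count of time points alone, and its rule is not shown.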
Experiments:
Assay in all cases: number of time points (of 5) at which kinase-Nluc abundance scored as decreased, DMSO-normalised (count); higher = more persistent destabilization
Conditions in all cases: K562; 2-18 h
[1] = target: ALK (UniProt Q9UM73)
[2] = target: ARAF (UniProt P10398)
[3] = target: AURKA (UniProt O14965)
[4] = target: AURKB (UniProt Q96GD4)
[5] = target: AURKC (UniProt Q9UQB9)
[6] = target: BLK (UniProt P51451)
[7] = target: BMX (UniProt P51813)
[8] = target: BRAF (UniProt P15056)
[9] = test system: BRAF_V600E
[10] = target: BTK (UniProt Q06187)

The chains behind the UniProt entries cited, without tags or fusion partners. Where a name states a change or a piece, a line headed by the entry shows the natural chain unless it says otherwise.
UniProt Q9UM73: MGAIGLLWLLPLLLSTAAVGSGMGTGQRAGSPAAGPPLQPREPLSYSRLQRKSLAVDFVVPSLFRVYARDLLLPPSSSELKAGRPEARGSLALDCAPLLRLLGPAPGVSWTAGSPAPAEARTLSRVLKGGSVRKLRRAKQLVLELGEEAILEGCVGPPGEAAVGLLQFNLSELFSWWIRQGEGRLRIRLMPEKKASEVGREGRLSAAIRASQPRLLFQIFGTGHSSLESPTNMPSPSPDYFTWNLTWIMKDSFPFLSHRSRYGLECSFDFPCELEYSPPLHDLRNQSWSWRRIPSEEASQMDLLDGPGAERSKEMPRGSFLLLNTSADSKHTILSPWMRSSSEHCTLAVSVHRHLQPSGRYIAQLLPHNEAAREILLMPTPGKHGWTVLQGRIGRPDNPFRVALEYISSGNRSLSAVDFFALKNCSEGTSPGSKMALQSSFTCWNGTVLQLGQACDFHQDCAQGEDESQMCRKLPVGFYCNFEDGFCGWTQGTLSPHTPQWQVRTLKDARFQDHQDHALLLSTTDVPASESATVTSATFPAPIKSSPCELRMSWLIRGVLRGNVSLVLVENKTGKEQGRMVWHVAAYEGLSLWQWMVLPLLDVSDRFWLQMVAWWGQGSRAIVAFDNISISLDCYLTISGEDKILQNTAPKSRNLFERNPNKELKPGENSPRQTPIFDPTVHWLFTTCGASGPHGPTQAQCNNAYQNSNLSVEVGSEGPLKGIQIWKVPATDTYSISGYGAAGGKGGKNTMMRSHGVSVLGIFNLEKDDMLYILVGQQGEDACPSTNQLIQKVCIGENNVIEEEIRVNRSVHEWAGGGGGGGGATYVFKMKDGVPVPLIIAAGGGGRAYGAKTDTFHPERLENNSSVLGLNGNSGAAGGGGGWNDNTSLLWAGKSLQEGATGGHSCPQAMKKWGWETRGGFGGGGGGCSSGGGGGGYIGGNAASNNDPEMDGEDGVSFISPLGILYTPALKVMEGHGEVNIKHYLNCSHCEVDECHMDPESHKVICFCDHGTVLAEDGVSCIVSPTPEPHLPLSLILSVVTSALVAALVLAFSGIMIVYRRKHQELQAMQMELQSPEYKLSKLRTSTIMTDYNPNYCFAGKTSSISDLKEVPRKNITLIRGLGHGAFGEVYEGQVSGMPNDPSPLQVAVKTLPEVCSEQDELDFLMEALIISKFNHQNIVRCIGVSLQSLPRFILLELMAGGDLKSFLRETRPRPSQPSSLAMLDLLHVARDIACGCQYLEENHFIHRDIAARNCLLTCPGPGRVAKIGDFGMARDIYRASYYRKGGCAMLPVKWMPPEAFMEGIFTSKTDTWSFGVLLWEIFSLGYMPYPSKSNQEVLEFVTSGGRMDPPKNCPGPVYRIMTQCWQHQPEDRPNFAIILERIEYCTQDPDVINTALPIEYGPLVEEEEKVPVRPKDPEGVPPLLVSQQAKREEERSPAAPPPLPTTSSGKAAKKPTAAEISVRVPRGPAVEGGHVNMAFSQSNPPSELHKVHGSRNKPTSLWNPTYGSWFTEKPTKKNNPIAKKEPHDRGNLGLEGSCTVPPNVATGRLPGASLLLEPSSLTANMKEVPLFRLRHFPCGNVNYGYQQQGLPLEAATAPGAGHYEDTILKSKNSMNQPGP
UniProt P10398: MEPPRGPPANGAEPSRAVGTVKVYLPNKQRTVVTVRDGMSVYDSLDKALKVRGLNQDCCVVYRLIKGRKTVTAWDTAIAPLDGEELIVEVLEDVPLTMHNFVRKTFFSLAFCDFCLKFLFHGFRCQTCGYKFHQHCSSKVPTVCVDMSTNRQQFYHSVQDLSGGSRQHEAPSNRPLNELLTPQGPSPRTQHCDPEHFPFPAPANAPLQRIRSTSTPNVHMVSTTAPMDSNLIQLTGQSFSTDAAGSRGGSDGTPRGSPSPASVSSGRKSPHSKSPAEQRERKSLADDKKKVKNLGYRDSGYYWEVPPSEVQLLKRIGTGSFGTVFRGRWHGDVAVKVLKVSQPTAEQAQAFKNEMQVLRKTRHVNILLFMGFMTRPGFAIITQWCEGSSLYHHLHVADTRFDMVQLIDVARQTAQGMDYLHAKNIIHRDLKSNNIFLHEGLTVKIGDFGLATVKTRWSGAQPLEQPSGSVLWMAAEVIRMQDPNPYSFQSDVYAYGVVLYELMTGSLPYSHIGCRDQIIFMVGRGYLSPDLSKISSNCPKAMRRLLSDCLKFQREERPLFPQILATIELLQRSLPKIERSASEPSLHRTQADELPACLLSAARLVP
UniProt O14965: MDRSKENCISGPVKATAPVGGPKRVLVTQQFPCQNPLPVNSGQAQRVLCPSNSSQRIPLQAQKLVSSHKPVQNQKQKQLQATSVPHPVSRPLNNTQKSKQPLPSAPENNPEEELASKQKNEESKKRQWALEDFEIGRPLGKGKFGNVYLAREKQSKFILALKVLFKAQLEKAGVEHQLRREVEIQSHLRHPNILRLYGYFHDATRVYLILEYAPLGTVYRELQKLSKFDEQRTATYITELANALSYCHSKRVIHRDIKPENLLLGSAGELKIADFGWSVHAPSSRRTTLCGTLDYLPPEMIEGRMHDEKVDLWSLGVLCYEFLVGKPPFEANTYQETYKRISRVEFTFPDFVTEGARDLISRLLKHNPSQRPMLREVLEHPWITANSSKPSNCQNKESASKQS
UniProt Q96GD4, whole entry: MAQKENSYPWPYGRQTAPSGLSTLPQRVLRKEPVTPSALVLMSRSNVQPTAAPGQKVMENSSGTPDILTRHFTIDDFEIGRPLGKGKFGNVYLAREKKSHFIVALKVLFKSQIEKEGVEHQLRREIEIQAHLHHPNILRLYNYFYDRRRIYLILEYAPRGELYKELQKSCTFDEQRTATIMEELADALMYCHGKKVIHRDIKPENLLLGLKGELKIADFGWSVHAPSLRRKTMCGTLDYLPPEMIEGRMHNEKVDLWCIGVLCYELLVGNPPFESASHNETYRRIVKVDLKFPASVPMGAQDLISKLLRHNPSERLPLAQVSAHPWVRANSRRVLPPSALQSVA
UniProt Q9UQB9: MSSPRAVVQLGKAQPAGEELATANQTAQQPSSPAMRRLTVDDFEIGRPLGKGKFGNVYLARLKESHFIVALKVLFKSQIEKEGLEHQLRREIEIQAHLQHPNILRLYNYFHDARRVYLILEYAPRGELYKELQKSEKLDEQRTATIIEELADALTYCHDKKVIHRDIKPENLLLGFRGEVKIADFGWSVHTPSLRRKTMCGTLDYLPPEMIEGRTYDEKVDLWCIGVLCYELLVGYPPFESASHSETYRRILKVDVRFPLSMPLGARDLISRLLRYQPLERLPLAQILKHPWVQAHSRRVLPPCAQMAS
UniProt P51451: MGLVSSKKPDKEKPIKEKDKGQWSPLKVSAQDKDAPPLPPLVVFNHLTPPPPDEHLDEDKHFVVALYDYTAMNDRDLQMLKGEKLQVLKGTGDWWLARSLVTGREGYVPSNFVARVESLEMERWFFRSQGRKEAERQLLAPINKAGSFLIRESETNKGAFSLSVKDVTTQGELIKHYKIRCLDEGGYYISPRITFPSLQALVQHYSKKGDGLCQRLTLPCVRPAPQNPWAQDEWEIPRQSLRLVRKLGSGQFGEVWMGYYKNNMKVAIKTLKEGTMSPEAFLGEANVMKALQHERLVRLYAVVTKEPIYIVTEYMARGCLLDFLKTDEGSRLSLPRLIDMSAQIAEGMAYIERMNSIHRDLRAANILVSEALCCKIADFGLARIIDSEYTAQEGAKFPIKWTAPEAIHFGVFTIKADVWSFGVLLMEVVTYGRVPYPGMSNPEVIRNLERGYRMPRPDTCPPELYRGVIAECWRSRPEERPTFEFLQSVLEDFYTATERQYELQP
UniProt P51813: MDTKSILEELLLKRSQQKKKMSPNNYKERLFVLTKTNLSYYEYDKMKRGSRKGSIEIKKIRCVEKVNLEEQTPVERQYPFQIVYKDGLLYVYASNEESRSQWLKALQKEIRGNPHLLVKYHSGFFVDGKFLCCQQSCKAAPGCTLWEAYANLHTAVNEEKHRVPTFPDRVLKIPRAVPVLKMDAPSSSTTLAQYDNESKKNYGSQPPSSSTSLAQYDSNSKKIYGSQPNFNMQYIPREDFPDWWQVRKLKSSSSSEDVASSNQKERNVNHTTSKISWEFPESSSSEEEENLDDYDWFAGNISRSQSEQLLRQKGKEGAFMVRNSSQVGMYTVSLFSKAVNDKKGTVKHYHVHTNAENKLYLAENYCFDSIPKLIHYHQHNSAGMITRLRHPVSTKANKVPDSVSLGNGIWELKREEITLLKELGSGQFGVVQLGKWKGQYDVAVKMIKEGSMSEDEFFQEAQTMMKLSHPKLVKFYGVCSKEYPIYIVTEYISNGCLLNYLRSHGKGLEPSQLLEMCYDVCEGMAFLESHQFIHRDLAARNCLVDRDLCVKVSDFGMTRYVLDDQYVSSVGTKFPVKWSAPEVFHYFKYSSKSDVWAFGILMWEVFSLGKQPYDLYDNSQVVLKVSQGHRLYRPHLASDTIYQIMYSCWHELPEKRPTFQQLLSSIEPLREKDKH
UniProt P15056, whole entry, looked up: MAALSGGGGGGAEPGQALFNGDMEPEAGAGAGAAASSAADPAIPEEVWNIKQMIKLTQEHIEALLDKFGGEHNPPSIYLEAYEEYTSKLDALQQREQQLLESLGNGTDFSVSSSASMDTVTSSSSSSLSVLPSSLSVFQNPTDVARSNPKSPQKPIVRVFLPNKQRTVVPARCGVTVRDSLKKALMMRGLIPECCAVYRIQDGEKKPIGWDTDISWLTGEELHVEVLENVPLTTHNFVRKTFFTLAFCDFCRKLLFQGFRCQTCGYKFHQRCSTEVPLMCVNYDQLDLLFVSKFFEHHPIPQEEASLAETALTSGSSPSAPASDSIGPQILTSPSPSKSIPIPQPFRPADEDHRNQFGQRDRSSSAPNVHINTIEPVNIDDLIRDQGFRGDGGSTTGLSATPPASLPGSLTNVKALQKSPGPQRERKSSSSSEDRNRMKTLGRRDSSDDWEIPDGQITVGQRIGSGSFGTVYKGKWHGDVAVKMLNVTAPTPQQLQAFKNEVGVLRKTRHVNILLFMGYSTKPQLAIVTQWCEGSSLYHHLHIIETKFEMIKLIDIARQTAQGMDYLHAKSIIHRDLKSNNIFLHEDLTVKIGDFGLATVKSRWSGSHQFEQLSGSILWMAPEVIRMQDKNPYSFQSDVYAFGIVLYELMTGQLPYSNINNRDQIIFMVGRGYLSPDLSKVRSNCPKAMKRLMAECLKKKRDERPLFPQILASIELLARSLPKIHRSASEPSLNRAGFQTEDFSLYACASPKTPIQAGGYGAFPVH
UniProt Q06187: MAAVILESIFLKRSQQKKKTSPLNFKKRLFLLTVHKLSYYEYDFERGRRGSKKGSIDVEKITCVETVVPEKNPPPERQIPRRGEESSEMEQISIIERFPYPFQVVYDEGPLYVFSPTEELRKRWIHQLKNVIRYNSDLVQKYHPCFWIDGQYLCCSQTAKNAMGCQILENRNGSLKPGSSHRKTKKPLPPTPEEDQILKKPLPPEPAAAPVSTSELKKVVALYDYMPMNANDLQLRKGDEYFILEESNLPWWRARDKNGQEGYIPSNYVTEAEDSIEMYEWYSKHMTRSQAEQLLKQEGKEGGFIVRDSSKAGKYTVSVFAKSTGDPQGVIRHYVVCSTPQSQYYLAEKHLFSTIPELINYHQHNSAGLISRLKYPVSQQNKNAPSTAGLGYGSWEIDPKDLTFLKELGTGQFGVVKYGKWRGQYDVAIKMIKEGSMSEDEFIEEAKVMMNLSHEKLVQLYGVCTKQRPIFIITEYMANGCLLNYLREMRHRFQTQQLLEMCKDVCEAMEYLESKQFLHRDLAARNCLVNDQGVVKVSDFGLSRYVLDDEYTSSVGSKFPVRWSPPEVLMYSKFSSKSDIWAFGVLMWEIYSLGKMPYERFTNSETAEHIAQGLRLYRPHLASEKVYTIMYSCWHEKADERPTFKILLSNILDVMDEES

SMILES	number of time points [1]	number of time points [2]	number of time points [3]	number of time points [4]	number of time points [5]	number of time points [6]	number of time points [7]	number of time points [8]	number of time points [9]	number of time points [10]
C[C@H](CN(C)C)Oc1nc(Nc2cc3cccc(Cl)c3cn2)cnc1C#N (10 µM)	0	0	0	0	0	0	0	0	0	0
C=CC(=O)Nc1cccc(Nc2nc(Nc3ccc(OCCOC)cc3)ncc2F)c1 [Spebrutinib] (10 µM)	0	0	0	0	0	0	0	0	0	0
C/C=C(/C)C(=O)O[C@H]1Cc2cc3ccc(=O)oc3cc2OC1(C)C [Decursinol angelate] (10 µM)	0	0	0	0	0	0	0	0	0	0
Cc1c(C(=O)N2CCOc3ccc(-c4ccc(N)nc4)cc3C2)ccc(S(C)(=O)=O)c1F (10 µM)	0	0	3	0	0	1	3	0	2	0
C=CC(=O)N1CC[C@H](n2nc(C#Cc3cc(OC)cc(OC)c3)c3c(N)ncnc32)C1 [Futibatinib] (10 µM)	0	0	0	0	0	0	0	0	0	0
NS(=O)(=O)c1ccc(Nc2nc(OCC3CCCCC3)c3[nH]cnc3n2)cc1 (10 µM)	0	0	0	0	0	0	0	0	0	0
CC(C)(C)n1nc(Cc2cccc3ccccc23)c2c(N)ncnc21 (10 µM)	0	0	0	0	0	0	0	0	0	0
O=C(Nc1ccc(-c2ccnc(Nc3ccc(N4CCOCC4)cc3)n2)cc1)C1CCCN1 (centres undefined) (10 µM)	0	0	0	0	0	0	0	0	0	0
CCn1cc(-c2ccnc3[nH]c(-c4cccc(CN(C)C)c4)cc23)c(-c2ccc(NC(=O)N(C)C)cc2)n1 (2.5 µM)	0	0	0	0	0	0	0	0	0	0
Cc1nc(-c2cnc(NC(C)C)n(C)c2=O)ccc1Oc1ccnc(-c2cnn(C)c2)c1 (2.5 µM)	0	0	0	0	0	0	0	0	1	0
CC(C)c1cnn2c(NCc3ccccc3)cc(NC[C@H]3CCNC[C@@H]3O)nc12 [Samuraciclib (hydrochloride)] (10 µM)	0	0	0	0	0	0	0	0	0	0
COc1ccc(COc2ccc(Cc3cnc(N)nc3N)cc2OC)cc1 (10 µM)	0	0	0	0	0	0	0	0	0	0
COc1ccc(C=C(C#N)c2cccnc2)cc1OC (10 µM)	0	0	0	0	0	0	0	0	0	0
CN(C)C(=O)/C(C#N)=C/c1ccc(-c2nc3cnc4[nH]ccc4c3n2C2CCCCC2)o1 (10 µM)	0	0	0	0	0	0	0	0	0	0
COc1cc(C=C(C#N)C(N)=O)cc(CSc2nc3ccccc3s2)c1O (10 µM)	0	0	0	0	0	0	0	0	0	0
Cc1cc(N2CCOCC2)cc2[nH]c(-c3c(NC[C@@H](O)c4cccc(Cl)c4)cc[nH]c3=O)nc12 (10 µM)	1	0	1	4	0	3	0	0	1	0
C=CC(=O)Nc1ccc2ncnc(Nc3cccc(Br)c3)c2c1 (10 µM)	0	0	0	0	0	4	0	0	4	0
CNC(=O)c1ccccc1Nc1nc(Nc2ccc(N3CCOCC3)cc2OC)ncc1Cl (2.5 µM)	0	0	0	0	0	0	0	0	0	0
CC(C)C(=O)Nc1ncc(-c2cc(C(F)F)nn2-c2c(Cl)cccc2Cl)s1 (10 µM)	0	0	0	0	0	0	5	0	0	0
Cc1ccc(S(=O)(=O)Nc2nc3ccccc3nc2Nc2ccc3nsnc3c2)cc1 [Pilaralisib analogue] (10 µM)	0	0	0	0	1	0	0	5	0	4
O=S(=O)(NCCNC/C=C/c1ccc(Br)cc1)c1cccc2cnccc12 [H-89 (dihydrochloride)] (10 µM)	0	0	0	0	0	0	0	0	0	0
Nc1nc(N)c(N=O)c(OCC2CCCCC2)n1 (10 µM)	0	0	0	0	0	0	0	0	0	0
Cc1cc(CS(=O)(=O)c2ccccc2)cc(OCc2ccc(CN3CCC[C@@H]3CO)cc2)c1 [PF-543 (Citrate)] (10 µM)	0	0	0	0	0	0	0	0		0

Pulled by compound from the list above:
SMILES	number of time points [1]	number of time points [2]	number of time points [3]	number of time points [4]	number of time points [5]	number of time points [6]	number of time points [7]	number of time points [8]	number of time points [9]	number of time points [10]
COc1cc(C=C(C#N)C(N)=O)cc(CSc2nc3ccccc3s2)c1O (10 µM)	0	0	0	0	0	0	0	0	0	0
Cc1cc(CS(=O)(=O)c2ccccc2)cc(OCc2ccc(CN3CCC[C@@H]3CO)cc2)c1 [PF-543 (Citrate)] (10 µM)	0	0	0	0	0	0	0	0		0
